Results from PubChem BioAssay AID651640 (Broad Institute, 2012).
Out of some 350,000 compounds screened, about 6,000 (1.7%) were called active. This list was built around the results that the source calls inconclusive (neither active nor inactive); the mix of calls is not that of the screen. Rule as the data show it: active = CPE inhibition above about 20% (passing the limit was not always enough); inconclusive = no clear call, values can overlap the other calls; tested in BHK-21 cells. Some structures have more than one record in an assay (separate samples or runs), and their calls can disagree.

Assay: protection of cells from dengue 2 killing – plate reader, single concentration, primary screen (AID 651640);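 also: 0% = median of neutral control wells and 100% = median of positive control wells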
Conditions: DENV2-infected cells, cytopathic effect rescue, at 9.99 µM, active compounds read high

| SMILES | CPE inhibition |
| --- | --- |
| CC(C)NC(=O)N(C)C[C@H]1Oc2ccc(NC(=O)Nc3ccc(F)cc3)cc2CC(=O)N([C@H](C)CO)C[C@@H]1C | inactive: 3.35% |
| CC(C)C[C@H]1COc2cccc(F)c2S(=O)(=O)N1 | inconclusive: 24.6% |
| C[C@H]1CN([C@@H](C)CO)C(=O)c2cc(NC(=O)C3CC3)ccc2O[C@H]1CN(C)C(=O)Nc1ccccc1 | inactive: -1.5% |
| C[C@H](CO)N1C[C@H](C)[C@@H](CN(C)C(=O)Nc2ccc3c(c2)OCO3)Oc2c(NS(=O)(=O)c3ccc(F)cc3)cccc2C1=O | active: 47.7% |
| Cc1ccc(NC(=O)C2CC(=O)N(C(C)C)C2)cc1C (stereo not given) | inconclusive: 37.6% |
| O=C(CSc1ccc2nnc(-c3ccncc3)n2n1)Nc1ccccc1F | inconclusive: 29.7% |
| O=C(c1cccc(-c2ccccc2F)c1)N1CC[C@@H](N2CCC(O)CC2)[C@H](O)C1 | inconclusive: 62.6% |
| COc1ccc(C(=O)Nc2ccc3c(c2)C(=O)NC3=O)cc1 | inconclusive: 34% |
| CC1CCCN(C(=O)CSc2nnc(-c3cccs3)o2)C1 (stereo not given) | inconclusive: 32.1% |
| Cc1ccc(S(=O)(=O)N(C)C[C@H]2OCCCC[C@@H](C)Oc3ccc(NS(C)(=O)=O)cc3C(=O)N([C@H](C)CO)C[C@@H]2C)cc1 | active: 24.2% |
| O=C(Nc1ccc(F)cc1)N1CC(=O)N2[C@H](C1)[C@H](c1ccc(C#Cc3ccc(F)cc3)cc1)[C@@H]2CO | inconclusive: 20.4% |
| NC(=O)NCc1ccc(C(=O)OCc2ccncc2)cc1 | inconclusive: 72.3% |
| CCOC(=O)c1cc2c(c(-c3cccc(C#Cc4ccc(OC)c(OC)c4)c3)n1)[C@@H](CCO)N(S(=O)C(C)(C)C)C2 (stereo not given in full) | inconclusive: 48.2% |
| CC(C)NC(=O)N1C[C@@H]2[C@H](c3ccccc31)[C@@H](CO)N2Cc1ccc(Cl)cc1 | active: 47.3% |
| CN1C(=O)c2cc(NC(=O)Cc3ccccc3)ccc2OC[C@@H]2O[C@H](CC(=O)O)CC[C@@H]21 | inconclusive: 26% |
| O=C(Nc1ccnn1C1CCN(Cc2ccc(C#CCCO)cc2)CC1)c1cccc(F)c1 | inconclusive: 24.7% |
| Cc1ccccc1NC(=O)Cc1nnc(SCC(=O)NC2CCCC2)n1C | inconclusive: 27.2% |
| Cc1ccc(/C=N/Nc2cc(C)nc(N3CCOCC3)n2)cc1 | inconclusive: 30.5% |
| CC(Oc1ccccc1Cl)C(=O)Nc1ccc(S(=O)(=O)N2CCOCC2)cc1 (stereo not given) | inconclusive: 39.4% |
| COc1cc(NC(=O)C/C(C)=N/NC(=O)C2CCCCC2)c(OC)cc1Cl | inconclusive: 21% |
| CCC(=O)Nc1ccc2c(c1)OC[C@H](C)N(C(=O)c1ccccn1)C[C@H](C)[C@H](OC)CN(C)C2=O | active: 34% |
| Cc1noc(C)c1NC(=O)Nc1cccc2c1O[C@H](CN(C)C(=O)NC1CCCCC1)[C@H](C)CN([C@H](C)CO)C2=O | inconclusive: 20.6% |
| CC(C)(C)NC(=O)C(c1ccc(F)cc1)N(Cc1ccco1)C(=O)CCC(=O)Nc1nccs1 (stereo not given) | inconclusive: 21.2% |

| SMILES | CPE inhibition |
| --- | --- |
| CCOC(CCNC(=O)c1cn(CCOC)c(=O)c2c1c1ccccc1n2C)OCC | inconclusive: 47.5% |
| COC(=O)C1=C(C)N(C)C(=NCc2ccc3c(c2)OCO3)NC1c1cccc(C(F)(F)F)c1 (stereo not given) | inconclusive: 56.3% |
| COc1ccc(S(=O)(=O)N2CCCc3nc(C)c(C)cc32)cc1 | inactive: -6.51% |
| COc1ccccc1N1CCN(S(=O)(=O)c2c(C(=O)N3CCOCC3)c(C)n(C)c2C)CC1 | inconclusive: 41.3% |
| Cc1ccc(CC2(C)C(=O)Nc3ccc(OC(F)(F)F)cc32)cc1 (stereo not given) | inactive: 6.39% |
| OC[C@@H]1[C@H](c2ccc(-c3cccnc3)cc2)[C@H]2CN(Cc3ccccn3)CCCCN12 | inconclusive: 20.4% |
| Cc1c(C(=O)N2CCN(c3ccccc3)CC2)oc2c1C(=O)CC(C)(C)C2 | inactive: 6.11% |
| CCC(=O)N1[C@H](CO)[C@H](c2ccccc2)C12CN(C(=O)Nc1cccc(OC)c1)C2 | inactive: -9.76% |
| COc1ccc(NC(=O)Nc2ccc3c(c2)C(=O)N([C@@H](C)CO)C[C@H](C)[C@H](CN(C)Cc2ccc(C(=O)O)cc2)OCCCC[C@H](C)O3)cc1 | active: 80.1% |
| O=C(c1cccnc1)N1CC[C@@H]2[C@@H](CO)Nc3ccc(-c4ccc(F)cc4)cc3[C@@H]21 | inconclusive: 67.2% |
| O=S(=O)(NCC[C@@H]1CC[C@H](NS(=O)(=O)c2ccccc2Cl)[C@H](CO)O1)c1ccc(Cl)cc1 | inconclusive: 27.7% |
| CCOC1=C2[C@@H](CN(S(=O)(=O)c3ccc(C)cc3)[C@H]2c2cccc3ccccc23)[C@H]2C(=O)N(c3ccccc3)C(=O)[C@H]2C1 | inconclusive: 72.9% |
| C[C@H]1CN([C@@H](C)CO)C(=O)CCCn2nncc2CO[C@H]1CN(C)C(=O)c1ccncc1 | inconclusive: 20.3% |
| O=C(C[C@@H]1C[C@@H]2c3cc(NS(=O)(=O)c4ccc(F)cc4)ccc3O[C@@H]2[C@H](CO)O1)NC1CCCCC1 | inactive: 0.957% |
| COc1ccc(C2/C=C\CN(C(=O)C3CCCCC3)CC(=O)N2Cc2ccc(F)cc2)cc1 (stereo not given) | inconclusive: 51.9% |
| COCC(=O)NC[C@@H]1N[C@@H](CO)[C@H]1c1ccc(C2=CCCC2)cc1 | inconclusive: 31.8% |
| C[C@H](CO)N1C[C@H](C)[C@H](CN(C)C(=O)c2ccccc2)Oc2cc(C#CC3(O)CCCC3)ccc2S1(=O)=O | inactive: 16.2% |
| CCn1c(SCC(=O)Nc2ccc(OC)cc2)nc2nc3c(cc2c1=O)CCCC3 | inactive: 4.46% |
| O=C1C(Cl)=C(Nc2ccc3cn[nH]c3c2)C(=O)c2ccccc21 | inactive: -0.365% |
| CC(C)C#Cc1ccc([C@H]2[C@H]3CN(C(=O)c4ccc5c(c4)OCO5)CC(=O)N3[C@H]2CO)cc1 | inconclusive: 20.5% |
| CCOC(=O)C(NC(=O)c1ccccc1)(OCc1ccc(F)cc1)C(F)(F)F (stereo not given) | inconclusive: 50% |
| CCC(C)n1ncn(-c2ccc(N3CCN(c4ccc(OCC5COC(Cn6cncn6)(c6ccc(Cl)cc6Cl)O5)cc4)CC3)cc2)c1=O (stereo not given) | inconclusive: 35.2% |

Not a retest: entries from further up.

| SMILES | CPE inhibition |
| --- | --- |
| Cc1c(C(=O)N2CCN(c3ccccc3)CC2)oc2c1C(=O)CC(C)(C)C2 | inactive: 6.11% |
| CCC(=O)N1[C@H](CO)[C@H](c2ccccc2)C12CN(C(=O)Nc1cccc(OC)c1)C2 | inactive: -9.76% |
| COc1ccc(NC(=O)Nc2ccc3c(c2)C(=O)N([C@@H](C)CO)C[C@H](C)[C@H](CN(C)Cc2ccc(C(=O)O)cc2)OCCCC[C@H](C)O3)cc1 | active: 80.1% |
| O=C(c1cccnc1)N1CC[C@@H]2[C@@H](CO)Nc3ccc(-c4ccc(F)cc4)cc3[C@@H]21 | inconclusive: 67.2% |
| O=S(=O)(NCC[C@@H]1CC[C@H](NS(=O)(=O)c2ccccc2Cl)[C@H](CO)O1)c1ccc(Cl)cc1 | inconclusive: 27.7% |
| CCOC1=C2[C@@H](CN(S(=O)(=O)c3ccc(C)cc3)[C@H]2c2cccc3ccccc23)[C@H]2C(=O)N(c3ccccc3)C(=O)[C@H]2C1 | inconclusive: 72.9% |
| C[C@H]1CN([C@@H](C)CO)C(=O)CCCn2nncc2CO[C@H]1CN(C)C(=O)c1ccncc1 | inconclusive: 20.3% |
| O=C(C[C@@H]1C[C@@H]2c3cc(NS(=O)(=O)c4ccc(F)cc4)ccc3O[C@@H]2[C@H](CO)O1)NC1CCCCC1 | inactive: 0.957% |
| COc1ccc(C2/C=C\CN(C(=O)C3CCCCC3)CC(=O)N2Cc2ccc(F)cc2)cc1 (stereo not given) | inconclusive: 51.9% |
| COCC(=O)NC[C@@H]1N[C@@H](CO)[C@H]1c1ccc(C2=CCCC2)cc1 | inconclusive: 31.8% |
| C[C@H](CO)N1C[C@H](C)[C@H](CN(C)C(=O)c2ccccc2)Oc2cc(C#CC3(O)CCCC3)ccc2S1(=O)=O | inactive: 16.2% |
| CCn1c(SCC(=O)Nc2ccc(OC)cc2)nc2nc3c(cc2c1=O)CCCC3 | inactive: 4.46% |
| O=C1C(Cl)=C(Nc2ccc3cn[nH]c3c2)C(=O)c2ccccc21 | inactive: -0.365% |
